These are yes or no findings as the source states them, for the method shown. In cells and extracts the contact can be indirect. Some results given as binding are weak or reduced against the parent protein; the word gives no strength.
What was measured:
Experiment in all cases: FRET or BRET
[1] = molecular target: SNAP-mGlu3 (metabotropic glutamate receptor 3, N-terminal FLAG-SNAP tag) (human) (UniProt Q14832)
[2] = molecular target: mGlu3-Venus (metabotropic glutamate receptor 3 with Venus at the C-terminal domain) (human) (UniProt Q14832)
[3] = molecular target: mGlu2-Venus (metabotropic glutamate receptor 2 with Venus at the C-terminal domain) (human) (UniProt Q14416)
[4] = molecular target: mGlu4-Venus (metabotropic glutamate receptor 4 with Venus at the C-terminal domain) (human) (UniProt Q14833)

Sequences of proteins named here, by UniProt entry; tags and fusion partners are left off. Residues count along the entry.
UniProt Q14832, residues 23-879: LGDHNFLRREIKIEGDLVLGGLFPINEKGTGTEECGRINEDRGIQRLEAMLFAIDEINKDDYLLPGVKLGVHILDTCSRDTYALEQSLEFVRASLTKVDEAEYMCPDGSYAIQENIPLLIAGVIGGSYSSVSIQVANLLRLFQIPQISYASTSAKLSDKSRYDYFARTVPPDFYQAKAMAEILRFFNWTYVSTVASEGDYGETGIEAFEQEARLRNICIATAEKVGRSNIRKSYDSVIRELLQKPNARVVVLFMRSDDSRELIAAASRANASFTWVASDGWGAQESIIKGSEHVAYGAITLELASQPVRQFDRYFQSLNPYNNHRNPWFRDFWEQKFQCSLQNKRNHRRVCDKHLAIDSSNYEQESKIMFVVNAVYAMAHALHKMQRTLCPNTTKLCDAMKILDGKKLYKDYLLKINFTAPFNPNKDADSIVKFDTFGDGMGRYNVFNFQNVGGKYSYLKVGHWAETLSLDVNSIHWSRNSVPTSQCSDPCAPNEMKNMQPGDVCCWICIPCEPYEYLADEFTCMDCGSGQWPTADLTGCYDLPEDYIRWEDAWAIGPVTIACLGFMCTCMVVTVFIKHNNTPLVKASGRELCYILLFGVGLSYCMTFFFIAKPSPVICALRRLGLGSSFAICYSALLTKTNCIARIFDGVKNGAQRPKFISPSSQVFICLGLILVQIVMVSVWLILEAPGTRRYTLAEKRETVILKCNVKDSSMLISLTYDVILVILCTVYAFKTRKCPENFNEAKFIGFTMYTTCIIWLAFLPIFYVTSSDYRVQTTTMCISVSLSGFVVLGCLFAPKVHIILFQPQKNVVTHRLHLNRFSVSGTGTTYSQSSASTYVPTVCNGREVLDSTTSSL
UniProt Q14416, residues 19-872: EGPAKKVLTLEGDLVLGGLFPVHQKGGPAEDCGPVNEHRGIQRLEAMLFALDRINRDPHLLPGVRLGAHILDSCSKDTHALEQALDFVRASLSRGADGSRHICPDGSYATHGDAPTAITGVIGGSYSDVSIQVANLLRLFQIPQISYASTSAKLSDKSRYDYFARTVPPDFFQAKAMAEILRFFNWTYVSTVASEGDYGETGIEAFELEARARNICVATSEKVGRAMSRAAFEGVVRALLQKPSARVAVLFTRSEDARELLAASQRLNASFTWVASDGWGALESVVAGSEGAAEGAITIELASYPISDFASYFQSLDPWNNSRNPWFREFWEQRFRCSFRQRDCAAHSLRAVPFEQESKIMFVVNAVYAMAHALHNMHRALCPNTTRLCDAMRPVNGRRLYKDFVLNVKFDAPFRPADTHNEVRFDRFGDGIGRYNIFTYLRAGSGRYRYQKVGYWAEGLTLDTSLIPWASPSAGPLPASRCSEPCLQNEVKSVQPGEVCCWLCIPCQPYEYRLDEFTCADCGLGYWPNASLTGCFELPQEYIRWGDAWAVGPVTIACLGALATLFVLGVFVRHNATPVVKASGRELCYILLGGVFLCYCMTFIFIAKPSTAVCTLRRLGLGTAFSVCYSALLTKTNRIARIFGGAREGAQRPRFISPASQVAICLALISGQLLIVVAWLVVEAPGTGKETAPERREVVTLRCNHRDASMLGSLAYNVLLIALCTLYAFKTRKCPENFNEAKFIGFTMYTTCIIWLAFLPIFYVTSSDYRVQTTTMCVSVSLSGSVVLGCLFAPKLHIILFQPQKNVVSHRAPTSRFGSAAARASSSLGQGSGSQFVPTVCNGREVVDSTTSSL
UniProt Q14833, residues 33-912: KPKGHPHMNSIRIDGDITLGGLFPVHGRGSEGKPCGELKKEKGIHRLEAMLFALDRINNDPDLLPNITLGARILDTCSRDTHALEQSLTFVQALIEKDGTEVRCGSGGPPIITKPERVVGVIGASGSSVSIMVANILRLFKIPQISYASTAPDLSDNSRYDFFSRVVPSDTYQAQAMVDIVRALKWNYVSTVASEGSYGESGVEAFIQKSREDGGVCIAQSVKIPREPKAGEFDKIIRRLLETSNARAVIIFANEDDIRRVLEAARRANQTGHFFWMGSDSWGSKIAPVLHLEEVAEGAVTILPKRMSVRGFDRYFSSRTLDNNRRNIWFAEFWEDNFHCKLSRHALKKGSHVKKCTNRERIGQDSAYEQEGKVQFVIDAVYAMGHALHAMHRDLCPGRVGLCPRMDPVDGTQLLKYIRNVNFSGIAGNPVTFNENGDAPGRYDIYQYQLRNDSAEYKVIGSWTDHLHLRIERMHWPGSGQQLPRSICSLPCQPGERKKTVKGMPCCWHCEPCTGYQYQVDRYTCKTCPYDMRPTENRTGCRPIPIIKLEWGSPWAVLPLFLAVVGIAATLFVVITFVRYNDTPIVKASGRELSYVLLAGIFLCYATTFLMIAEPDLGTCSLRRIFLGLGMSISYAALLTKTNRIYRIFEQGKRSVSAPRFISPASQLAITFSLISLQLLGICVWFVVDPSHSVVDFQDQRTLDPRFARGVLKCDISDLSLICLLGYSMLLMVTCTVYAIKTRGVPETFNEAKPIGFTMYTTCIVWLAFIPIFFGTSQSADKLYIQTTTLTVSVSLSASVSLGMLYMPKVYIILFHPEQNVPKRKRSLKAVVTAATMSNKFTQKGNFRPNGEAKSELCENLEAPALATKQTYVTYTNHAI
UniProt O00222, residues 34-908: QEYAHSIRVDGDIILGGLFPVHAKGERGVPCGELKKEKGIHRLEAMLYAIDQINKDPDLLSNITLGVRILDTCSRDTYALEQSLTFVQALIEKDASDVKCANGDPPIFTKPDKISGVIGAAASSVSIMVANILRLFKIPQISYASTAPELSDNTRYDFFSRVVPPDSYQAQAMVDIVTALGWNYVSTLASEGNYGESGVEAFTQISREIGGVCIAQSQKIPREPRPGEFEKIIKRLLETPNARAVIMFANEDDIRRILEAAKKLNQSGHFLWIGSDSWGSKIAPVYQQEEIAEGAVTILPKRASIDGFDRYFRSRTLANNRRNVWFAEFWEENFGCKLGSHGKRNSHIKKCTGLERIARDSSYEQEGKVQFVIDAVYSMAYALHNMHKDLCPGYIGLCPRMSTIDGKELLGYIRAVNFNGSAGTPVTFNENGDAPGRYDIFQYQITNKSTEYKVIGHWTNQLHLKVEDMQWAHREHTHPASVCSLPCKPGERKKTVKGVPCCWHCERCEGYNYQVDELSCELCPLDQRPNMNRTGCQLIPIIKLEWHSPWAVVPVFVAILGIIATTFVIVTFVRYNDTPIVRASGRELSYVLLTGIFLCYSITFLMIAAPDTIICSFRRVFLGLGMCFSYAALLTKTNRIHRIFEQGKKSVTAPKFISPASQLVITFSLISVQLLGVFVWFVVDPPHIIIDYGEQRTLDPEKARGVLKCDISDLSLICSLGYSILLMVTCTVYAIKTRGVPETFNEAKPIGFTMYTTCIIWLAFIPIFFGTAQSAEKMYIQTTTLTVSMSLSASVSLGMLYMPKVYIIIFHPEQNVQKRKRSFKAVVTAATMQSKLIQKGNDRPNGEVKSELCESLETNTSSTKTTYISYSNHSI
UniProt P49407: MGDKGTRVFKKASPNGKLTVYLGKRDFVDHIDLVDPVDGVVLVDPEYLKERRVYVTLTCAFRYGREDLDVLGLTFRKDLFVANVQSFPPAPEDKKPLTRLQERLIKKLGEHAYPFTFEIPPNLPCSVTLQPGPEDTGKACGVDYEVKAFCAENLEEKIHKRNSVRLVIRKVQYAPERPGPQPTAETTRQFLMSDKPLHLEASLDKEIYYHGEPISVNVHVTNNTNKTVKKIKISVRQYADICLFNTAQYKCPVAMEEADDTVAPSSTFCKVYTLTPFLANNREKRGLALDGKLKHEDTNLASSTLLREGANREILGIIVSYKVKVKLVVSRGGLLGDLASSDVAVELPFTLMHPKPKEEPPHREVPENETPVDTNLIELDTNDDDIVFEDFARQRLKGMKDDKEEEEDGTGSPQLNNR
UniProt P32121: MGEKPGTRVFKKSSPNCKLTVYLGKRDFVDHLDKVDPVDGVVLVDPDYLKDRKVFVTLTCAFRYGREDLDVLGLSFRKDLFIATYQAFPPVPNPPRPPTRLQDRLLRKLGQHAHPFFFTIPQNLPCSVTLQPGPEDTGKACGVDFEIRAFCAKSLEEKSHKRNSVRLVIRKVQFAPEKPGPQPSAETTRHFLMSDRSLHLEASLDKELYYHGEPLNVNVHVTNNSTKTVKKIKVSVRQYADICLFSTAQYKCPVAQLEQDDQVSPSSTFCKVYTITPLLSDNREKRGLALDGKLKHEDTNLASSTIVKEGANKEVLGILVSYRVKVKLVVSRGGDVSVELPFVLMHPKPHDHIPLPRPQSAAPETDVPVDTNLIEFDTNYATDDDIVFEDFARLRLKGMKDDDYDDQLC

| Substance | binding [1] | binding [2] | binding [3] | binding [4] |
| --- | --- | --- | --- | --- |
| CLIP-mGlu8 (metabotropic glutamate receptor 8, N-terminal FLAG-CLIP tag) (from UniProt O00222 34-908) | binds | – | – | – |
| β-arrestin 1 tagged with RLuc8 at the C-terminal domain (from UniProt P49407 1-418) | – | binds | no binding | no binding |
| β-arrestin 2 tagged with RLuc8 at the C-terminal domain (from UniProt P32121 1-409) | – | binds | no binding | no binding |

From paper doi:10.1101/2025.02.13.638043
